Results: article doi:10.1101/2022.08.30.505748 (bioRxiv, 2022)
Where a chain is given by its changes, count along the chain named. Results are given in words; binding and its absence hold for the method and conditions named. Some results given as binding are weak or reduced against the parent protein; the word gives no strength.

Chains of the proteins cited; added tags and fusions are not shown. Lines headed by an entry give the natural chain unless they say otherwise; changes in a name come on top.
UniProt Q9NR09: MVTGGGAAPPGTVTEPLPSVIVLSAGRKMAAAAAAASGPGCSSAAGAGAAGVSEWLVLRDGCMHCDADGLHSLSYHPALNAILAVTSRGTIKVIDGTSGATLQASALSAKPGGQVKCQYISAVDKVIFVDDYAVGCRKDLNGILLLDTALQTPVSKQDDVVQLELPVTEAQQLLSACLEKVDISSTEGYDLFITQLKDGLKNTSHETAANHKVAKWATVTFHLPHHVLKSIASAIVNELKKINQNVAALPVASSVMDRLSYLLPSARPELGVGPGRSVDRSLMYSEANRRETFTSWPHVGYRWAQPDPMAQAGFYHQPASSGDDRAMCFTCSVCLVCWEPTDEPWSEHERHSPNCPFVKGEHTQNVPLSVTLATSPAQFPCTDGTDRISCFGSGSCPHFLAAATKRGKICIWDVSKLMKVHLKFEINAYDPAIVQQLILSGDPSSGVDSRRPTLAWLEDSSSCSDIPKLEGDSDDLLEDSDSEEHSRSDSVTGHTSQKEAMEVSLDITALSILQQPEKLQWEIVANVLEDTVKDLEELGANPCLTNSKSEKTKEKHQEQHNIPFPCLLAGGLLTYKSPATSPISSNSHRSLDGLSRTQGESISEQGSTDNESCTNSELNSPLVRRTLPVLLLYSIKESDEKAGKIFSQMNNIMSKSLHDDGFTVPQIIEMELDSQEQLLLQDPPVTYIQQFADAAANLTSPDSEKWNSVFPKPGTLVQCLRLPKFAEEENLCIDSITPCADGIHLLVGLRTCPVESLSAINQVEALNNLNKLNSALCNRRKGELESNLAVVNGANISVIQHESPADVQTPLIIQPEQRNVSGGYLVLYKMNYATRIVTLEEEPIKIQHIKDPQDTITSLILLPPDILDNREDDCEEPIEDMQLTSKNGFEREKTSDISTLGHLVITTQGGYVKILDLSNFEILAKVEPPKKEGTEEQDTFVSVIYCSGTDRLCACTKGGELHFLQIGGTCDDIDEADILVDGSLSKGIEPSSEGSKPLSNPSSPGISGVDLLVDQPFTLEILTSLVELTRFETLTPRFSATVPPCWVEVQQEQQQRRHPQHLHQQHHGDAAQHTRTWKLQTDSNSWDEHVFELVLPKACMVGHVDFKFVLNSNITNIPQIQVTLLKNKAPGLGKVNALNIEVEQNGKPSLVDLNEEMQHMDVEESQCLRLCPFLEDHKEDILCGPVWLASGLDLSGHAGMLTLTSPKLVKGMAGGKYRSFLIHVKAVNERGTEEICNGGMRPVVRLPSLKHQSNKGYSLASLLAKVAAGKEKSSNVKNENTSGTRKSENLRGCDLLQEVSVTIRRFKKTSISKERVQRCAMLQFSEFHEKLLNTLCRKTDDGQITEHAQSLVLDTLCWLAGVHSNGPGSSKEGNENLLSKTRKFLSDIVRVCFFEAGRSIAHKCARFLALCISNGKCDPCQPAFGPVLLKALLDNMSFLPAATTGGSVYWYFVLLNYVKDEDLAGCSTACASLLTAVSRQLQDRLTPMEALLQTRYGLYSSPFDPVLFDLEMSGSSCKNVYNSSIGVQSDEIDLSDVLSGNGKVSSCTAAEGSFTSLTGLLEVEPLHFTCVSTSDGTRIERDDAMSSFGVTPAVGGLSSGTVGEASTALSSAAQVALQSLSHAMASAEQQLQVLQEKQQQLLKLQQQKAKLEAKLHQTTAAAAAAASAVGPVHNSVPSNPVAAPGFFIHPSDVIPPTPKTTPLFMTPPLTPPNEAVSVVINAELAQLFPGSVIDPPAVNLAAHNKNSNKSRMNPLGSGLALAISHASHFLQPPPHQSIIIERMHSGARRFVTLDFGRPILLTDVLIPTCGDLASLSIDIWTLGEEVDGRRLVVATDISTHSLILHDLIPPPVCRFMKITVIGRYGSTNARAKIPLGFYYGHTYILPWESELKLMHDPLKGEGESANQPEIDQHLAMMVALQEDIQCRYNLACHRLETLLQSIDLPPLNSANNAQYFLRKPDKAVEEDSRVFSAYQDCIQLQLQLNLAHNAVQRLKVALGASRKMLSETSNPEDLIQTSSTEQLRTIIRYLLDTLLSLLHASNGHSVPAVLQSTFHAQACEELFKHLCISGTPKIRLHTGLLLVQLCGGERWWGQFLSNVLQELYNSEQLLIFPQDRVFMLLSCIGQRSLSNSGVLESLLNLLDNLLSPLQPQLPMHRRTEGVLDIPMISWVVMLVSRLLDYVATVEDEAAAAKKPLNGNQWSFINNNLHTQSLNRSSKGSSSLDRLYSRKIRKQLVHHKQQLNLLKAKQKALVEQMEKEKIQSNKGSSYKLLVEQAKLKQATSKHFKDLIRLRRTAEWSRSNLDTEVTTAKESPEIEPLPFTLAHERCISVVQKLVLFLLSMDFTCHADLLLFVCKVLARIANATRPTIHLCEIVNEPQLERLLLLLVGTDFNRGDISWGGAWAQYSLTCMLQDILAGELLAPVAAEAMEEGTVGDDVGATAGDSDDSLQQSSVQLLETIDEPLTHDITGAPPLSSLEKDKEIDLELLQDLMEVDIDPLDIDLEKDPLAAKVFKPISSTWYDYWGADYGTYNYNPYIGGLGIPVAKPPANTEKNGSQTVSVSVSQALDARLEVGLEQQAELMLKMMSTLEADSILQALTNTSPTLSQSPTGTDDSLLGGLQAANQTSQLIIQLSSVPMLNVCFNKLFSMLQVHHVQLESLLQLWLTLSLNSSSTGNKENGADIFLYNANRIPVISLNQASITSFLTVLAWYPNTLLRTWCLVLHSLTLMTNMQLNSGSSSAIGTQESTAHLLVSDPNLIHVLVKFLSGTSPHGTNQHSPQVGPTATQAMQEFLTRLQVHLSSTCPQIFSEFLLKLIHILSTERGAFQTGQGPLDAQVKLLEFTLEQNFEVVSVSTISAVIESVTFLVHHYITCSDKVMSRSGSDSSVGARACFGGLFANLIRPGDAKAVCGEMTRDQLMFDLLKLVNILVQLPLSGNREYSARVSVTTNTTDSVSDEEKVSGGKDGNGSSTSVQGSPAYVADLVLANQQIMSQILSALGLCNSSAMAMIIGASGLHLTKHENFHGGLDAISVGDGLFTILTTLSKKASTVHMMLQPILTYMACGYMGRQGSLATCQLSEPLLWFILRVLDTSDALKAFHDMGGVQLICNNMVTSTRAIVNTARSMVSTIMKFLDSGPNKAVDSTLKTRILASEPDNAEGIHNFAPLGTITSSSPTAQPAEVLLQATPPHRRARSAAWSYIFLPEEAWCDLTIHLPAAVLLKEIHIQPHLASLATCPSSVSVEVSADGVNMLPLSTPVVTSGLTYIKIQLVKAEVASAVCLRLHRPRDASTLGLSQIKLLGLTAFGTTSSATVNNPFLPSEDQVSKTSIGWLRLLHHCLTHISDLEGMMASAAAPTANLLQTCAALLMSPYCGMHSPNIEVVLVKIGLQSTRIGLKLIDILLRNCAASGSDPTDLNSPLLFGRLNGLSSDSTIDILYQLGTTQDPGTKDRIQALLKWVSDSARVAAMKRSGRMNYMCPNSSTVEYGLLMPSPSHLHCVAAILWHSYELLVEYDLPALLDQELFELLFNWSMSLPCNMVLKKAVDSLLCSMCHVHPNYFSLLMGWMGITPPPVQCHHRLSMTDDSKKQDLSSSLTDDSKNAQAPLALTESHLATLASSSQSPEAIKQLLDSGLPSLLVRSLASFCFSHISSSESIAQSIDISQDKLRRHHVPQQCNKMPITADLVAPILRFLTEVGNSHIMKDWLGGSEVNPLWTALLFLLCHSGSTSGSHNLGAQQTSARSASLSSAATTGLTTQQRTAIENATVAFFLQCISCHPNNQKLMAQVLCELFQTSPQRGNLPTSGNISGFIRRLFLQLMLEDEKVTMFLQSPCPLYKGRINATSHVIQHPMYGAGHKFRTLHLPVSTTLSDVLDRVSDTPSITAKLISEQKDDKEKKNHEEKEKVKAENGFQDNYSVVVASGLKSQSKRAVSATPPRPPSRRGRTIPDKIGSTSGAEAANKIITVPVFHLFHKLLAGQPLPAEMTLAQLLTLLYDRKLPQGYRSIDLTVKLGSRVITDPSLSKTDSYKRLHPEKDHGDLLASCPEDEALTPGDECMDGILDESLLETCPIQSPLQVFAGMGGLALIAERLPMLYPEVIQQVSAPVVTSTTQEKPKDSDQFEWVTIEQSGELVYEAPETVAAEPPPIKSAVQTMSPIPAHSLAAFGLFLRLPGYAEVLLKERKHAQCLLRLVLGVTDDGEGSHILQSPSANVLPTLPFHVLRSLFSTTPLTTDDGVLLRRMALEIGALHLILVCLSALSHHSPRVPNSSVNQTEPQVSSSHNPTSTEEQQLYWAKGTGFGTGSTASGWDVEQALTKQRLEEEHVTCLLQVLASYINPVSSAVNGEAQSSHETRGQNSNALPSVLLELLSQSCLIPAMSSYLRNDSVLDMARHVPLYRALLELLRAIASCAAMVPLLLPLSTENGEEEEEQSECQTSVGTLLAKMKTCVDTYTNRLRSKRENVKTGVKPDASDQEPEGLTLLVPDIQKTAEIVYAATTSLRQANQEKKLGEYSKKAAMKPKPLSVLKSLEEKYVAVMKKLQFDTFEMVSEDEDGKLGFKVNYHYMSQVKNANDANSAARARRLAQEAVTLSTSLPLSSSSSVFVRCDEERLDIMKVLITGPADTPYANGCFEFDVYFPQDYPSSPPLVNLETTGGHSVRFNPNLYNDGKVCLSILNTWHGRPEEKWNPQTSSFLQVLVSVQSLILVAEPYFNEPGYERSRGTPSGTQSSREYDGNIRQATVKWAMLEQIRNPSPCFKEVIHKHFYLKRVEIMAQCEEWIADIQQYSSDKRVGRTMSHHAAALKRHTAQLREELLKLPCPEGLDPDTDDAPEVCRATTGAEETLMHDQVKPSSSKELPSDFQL

Columns and labels:
Experiment in all cases: fluorescence polarisation
[1] = target: T1, Alexa 555 monomeric SMAC (V81D), a.a. 56-239 with a C-terminal cysteine (UniProt Q9NR28)
T1 sequence (chain, Alexa Fluor 555 on the C-terminal cysteine): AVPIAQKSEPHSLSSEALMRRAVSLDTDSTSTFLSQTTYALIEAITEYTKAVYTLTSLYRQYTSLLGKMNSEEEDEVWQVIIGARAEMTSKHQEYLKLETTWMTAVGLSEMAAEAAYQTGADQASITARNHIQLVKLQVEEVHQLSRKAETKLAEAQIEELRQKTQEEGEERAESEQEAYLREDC

[2] = target: Cy3-labelled SMAC N-terminal peptide, …(Cy3)-Am
[3] = target: T2, Alexa555-SMAC (WT), a.a. 56-239 with a C-terminal cysteine (UniProt Q9NR28)
T2 sequence (chain, Alexa Fluor 555 on the C-terminal cysteine): T1 sequence (chain, Alexa Fluor 555 on the C-terminal cysteine) with D26V

Substance | binding [1] | binding [2] | binding [3]
BIRC6 D342A (full-length) (from UniProt Q9NR09 1-4857) (enzyme) | no binding | no binding | 
BIRC6 D342A in combination with HRRaR–D (from UniProt Q9NR09 1-4857) (enzyme) |  |  | binds
BIRC6 DOC domain tip mutant, residues 3189-3193 HRRaR to all Asp (from UniProt Q9NR09 1-4857) (enzyme) | binds |  | 
BIRC6 H351D (full-length) (from UniProt Q9NR09 1-4857) (enzyme) |  | no binding | 
